Measurements as given in patent US20260193331A1.
These are yes or no findings as the source states them, for the method shown. Some entries that bind do so weakly or less than the wild type.

Sequences of proteins named here, by UniProt entry; tags and fusion partners are left off. A change or cut given only in a name is not applied to a line headed by its entry.
UniProt O95994: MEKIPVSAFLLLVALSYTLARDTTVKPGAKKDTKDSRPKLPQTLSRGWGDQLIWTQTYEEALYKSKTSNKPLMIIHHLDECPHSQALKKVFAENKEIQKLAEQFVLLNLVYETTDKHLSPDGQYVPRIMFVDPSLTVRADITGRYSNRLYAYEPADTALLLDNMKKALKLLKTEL

Target: human AGR2 WT expressed on the yeast surface with a C-terminal HA tag (human) (UniProt O95994)
Assay: flow cytometry on yeast displaying human AGR2, 500 pM antibody

binding: binds
B1: TH-106 humanized monoclonal antibody (antibody, V domains shown)
VH: QVQLVQSGAEVKKPGASVKVSCKTSGYVFSRSWMNWVRQAPGQGLEWIGWIYPGDGDTNYNGKFKDRVTLTADKSTSTVYMELSSLRSEDTAVYFCARGGYDGSPWLSYWGQGTLVTVSS
VL: EIVLTQSPATLSLSPGERATLSCKASQDINSYLSWFQQKPGQAPRTLIYRANRLVDGIPARFSGSGSGQDFTLTISSLEPEDFAVYYCLQYDEFPFTFGGGTKVEIK
